Data as given in PubChem BioAssay AID1159584 (Peter MacCallum Cancer Centre, 2016).
The deposit covers about 18,000 reagents; below is an unselected part. Further read-outs or replicates are left out here. Reagent sequences are not shown. Not given: the amount of reagent, the time to read-out.

- Screen: 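Knock-downs that harm CDH1-null cells more than parental MCF10A cells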 (primary screen)
- System: human MCF10A breast epithelial cells, parental and CDH1-null
- Reagents: siRNA against human genes
- Measured: 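Cell viability by CellTiter-Glo ATP luminescence, each line scaled to the mean of mock wells across plates, then CDH1-null over parental ratio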
- Direction: CDH1-null / parental viability ratio: higher = CDH1-null cells survive relatively better than parental; CDH1-null viability vs mock: higher = more viable CDH1-null cells
- Units: CDH1-null viability vs mock in fraction of mock

For MOCS1 (molybdenum cofactor synthesis 1), the entry reads CDH1-null / parental viability ratio 0.93; CDH1-null viability vs mock 0.84.
Against ACTC1 (actin alpha cardiac muscle 1) the deposit lists CDH1-null / parental viability ratio 0.71; CDH1-null viability vs mock 0.68.
Against TMEM229B (transmembrane protein 229B), the values are CDH1-null / parental viability ratio 0.9; CDH1-null viability vs mock 0.73.
Depletion of TMEM42 (transmembrane protein 42) resulted in: CDH1-null / parental viability ratio 0.96; CDH1-null viability vs mock 0.68.
After knock-down of SH3GL3 (SH3 domain containing GRB2 like 3, endophilin A3), the screen gave CDH1-null / parental viability ratio 0.64; CDH1-null viability vs mock 0.54.
MKRN2 (makorin ring finger protein 2) scored CDH1-null / parental viability ratio 0.95; CDH1-null viability vs mock 0.8.
TEX264 (testis expressed 264, ER-phagy receptor) gave CDH1-null / parental viability ratio 0.99; CDH1-null viability vs mock 0.83.

A portion of the results above, as a working copy:
ACTC1 (actin alpha cardiac muscle 1) → CDH1-null / parental viability ratio = 0.71; CDH1-null viability vs mock = 0.68
TMEM229B (transmembrane protein 229B) → CDH1-null / parental viability ratio = 0.9; CDH1-null viability vs mock = 0.73

Next records follow:
Silencing of SERPINF2 (serpin family F member 2) resulted in: CDH1-null / parental viability ratio 1.26; CDH1-null viability vs mock 0.86.
Depletion of PRB2 (proline rich protein BstNI subfamily 2) resulted in: CDH1-null / parental viability ratio 0.97; CDH1-null viability vs mock 0.68.
Knock-down of COG2 (component of oligomeric golgi complex 2) resulted in: CDH1-null / parental viability ratio 1.02; CDH1-null viability vs mock 0.86.
Against HES3 (hes family bHLH transcription factor 3) the deposit lists CDH1-null / parental viability ratio 0.86; CDH1-null viability vs mock 0.69.
Depletion of VAMP1 (vesicle associated membrane protein 1) gave: CDH1-null / parental viability ratio 1.25; CDH1-null viability vs mock 1.2.
For ERGIC2 (ERGIC and golgi 2), the entry reads CDH1-null / parental viability ratio 0.81; CDH1-null viability vs mock 0.72.
HAO1 (hydroxyacid oxidase 1) showed CDH1-null / parental viability ratio 0.95; CDH1-null viability vs mock 1.08.
